Source: the supplement of paper PMC11006884
Only a part is listed here, and it is no random draw. The data scatter; read single values as rough.

The chains behind the UniProt entries cited, without tags or fusion partners. Where a name states a change or a piece, a line headed by the entry shows the natural chain unless it says otherwise.
UniProt P34897: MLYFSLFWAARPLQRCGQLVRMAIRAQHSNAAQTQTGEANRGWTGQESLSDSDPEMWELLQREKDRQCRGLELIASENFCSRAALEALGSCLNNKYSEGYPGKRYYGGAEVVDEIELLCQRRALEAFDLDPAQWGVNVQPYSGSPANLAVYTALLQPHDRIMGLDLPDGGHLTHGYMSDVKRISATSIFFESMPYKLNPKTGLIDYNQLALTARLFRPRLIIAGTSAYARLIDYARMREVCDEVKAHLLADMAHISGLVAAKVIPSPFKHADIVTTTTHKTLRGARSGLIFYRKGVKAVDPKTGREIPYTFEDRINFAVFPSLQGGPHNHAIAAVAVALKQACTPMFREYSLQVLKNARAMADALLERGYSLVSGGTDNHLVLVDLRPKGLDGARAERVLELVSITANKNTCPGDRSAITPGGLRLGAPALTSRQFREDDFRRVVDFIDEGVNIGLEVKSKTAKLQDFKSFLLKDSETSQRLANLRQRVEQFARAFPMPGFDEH
UniProt P34896: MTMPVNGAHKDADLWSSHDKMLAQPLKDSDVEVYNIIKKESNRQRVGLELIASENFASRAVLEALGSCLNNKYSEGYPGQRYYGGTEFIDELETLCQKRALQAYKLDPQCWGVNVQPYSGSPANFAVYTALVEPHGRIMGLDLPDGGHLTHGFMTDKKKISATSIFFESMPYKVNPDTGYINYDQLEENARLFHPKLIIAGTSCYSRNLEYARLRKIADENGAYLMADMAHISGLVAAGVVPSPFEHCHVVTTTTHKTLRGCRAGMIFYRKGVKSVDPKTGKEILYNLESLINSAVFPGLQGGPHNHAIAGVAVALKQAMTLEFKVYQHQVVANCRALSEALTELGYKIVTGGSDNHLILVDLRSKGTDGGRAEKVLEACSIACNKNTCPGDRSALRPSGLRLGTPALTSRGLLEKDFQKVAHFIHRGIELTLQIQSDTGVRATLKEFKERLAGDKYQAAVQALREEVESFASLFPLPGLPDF
UniProt P41567, whole entry, looked up: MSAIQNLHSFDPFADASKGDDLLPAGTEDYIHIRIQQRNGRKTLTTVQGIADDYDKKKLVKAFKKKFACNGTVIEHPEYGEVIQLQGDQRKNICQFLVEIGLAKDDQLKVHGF
UniProt P42771, whole entry: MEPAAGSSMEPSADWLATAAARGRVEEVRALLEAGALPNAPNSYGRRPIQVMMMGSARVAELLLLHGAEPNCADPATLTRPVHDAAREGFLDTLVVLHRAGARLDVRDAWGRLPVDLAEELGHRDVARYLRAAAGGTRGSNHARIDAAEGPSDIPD
UniProt P42356, whole entry, looked up: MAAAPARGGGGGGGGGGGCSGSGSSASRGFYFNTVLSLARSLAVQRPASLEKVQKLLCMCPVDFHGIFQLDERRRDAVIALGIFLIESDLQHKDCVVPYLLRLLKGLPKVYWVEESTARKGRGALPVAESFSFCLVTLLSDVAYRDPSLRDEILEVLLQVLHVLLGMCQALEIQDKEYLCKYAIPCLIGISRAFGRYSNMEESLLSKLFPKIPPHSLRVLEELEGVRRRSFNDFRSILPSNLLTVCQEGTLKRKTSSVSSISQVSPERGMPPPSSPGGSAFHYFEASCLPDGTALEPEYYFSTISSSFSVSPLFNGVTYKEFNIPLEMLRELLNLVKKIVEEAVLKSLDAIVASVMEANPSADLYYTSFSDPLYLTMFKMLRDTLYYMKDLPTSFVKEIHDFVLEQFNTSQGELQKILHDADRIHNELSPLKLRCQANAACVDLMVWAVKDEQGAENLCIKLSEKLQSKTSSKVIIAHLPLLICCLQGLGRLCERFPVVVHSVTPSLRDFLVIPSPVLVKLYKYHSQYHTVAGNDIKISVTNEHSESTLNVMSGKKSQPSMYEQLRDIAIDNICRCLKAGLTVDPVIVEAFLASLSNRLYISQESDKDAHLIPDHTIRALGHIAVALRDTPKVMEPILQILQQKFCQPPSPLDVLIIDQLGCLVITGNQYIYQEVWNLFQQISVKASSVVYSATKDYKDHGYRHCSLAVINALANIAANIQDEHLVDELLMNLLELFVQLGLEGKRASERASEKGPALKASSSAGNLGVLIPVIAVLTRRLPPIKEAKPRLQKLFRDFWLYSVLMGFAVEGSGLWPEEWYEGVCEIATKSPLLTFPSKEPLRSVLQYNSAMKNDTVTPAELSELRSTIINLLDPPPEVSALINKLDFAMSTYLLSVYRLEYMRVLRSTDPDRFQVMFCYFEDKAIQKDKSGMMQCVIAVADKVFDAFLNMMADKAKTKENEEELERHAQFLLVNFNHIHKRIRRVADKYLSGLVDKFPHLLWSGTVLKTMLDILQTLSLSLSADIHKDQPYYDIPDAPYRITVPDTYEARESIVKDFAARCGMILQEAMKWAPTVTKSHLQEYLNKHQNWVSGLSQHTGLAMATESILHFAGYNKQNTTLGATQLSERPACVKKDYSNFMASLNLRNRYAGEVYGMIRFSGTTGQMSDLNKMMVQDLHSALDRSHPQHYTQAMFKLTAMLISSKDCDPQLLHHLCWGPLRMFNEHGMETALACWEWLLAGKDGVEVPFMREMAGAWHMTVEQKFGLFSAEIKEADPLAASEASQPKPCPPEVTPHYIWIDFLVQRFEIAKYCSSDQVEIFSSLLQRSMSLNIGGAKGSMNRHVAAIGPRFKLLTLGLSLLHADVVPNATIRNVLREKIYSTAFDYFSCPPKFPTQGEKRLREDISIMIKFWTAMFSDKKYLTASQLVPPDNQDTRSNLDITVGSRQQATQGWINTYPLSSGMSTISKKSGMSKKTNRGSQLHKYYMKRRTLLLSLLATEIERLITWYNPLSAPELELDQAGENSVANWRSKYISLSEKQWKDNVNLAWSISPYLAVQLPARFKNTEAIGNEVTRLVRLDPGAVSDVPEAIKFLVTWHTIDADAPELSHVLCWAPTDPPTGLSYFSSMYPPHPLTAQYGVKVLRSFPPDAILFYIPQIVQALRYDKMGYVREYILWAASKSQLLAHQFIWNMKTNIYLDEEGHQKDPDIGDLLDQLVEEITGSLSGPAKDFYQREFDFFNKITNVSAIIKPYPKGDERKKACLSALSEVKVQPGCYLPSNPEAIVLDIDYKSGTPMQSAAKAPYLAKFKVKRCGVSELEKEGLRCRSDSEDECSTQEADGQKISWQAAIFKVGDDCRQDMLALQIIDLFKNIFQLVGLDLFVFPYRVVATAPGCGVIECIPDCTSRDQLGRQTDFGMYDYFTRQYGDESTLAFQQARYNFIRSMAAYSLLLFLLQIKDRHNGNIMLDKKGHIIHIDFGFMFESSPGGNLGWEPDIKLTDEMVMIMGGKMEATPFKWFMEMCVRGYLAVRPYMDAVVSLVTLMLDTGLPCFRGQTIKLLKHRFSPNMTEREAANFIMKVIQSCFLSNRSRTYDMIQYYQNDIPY
UniProt P35221: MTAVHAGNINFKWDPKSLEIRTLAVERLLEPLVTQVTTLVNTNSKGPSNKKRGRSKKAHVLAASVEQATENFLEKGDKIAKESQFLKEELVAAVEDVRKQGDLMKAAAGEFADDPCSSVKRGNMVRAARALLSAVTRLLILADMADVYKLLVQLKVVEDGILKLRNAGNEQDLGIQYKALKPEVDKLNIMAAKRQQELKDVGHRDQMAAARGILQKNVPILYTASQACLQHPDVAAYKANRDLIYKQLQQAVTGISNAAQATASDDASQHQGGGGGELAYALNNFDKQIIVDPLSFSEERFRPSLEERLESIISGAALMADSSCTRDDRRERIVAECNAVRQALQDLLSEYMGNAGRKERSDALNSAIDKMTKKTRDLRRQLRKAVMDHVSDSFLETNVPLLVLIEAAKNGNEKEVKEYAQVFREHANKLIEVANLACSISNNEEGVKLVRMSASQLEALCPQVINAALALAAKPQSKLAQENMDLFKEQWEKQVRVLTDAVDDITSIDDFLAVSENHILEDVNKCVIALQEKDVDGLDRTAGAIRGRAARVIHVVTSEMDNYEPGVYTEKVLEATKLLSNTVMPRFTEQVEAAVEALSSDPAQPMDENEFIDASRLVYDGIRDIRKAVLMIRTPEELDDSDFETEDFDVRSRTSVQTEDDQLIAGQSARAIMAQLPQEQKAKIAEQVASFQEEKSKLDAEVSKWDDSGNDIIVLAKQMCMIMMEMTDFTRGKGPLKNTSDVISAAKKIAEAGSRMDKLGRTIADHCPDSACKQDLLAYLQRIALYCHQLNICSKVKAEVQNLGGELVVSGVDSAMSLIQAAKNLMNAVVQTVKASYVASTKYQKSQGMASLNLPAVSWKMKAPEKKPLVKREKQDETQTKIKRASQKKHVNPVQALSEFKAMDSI
UniProt P38432, whole entry, looked up: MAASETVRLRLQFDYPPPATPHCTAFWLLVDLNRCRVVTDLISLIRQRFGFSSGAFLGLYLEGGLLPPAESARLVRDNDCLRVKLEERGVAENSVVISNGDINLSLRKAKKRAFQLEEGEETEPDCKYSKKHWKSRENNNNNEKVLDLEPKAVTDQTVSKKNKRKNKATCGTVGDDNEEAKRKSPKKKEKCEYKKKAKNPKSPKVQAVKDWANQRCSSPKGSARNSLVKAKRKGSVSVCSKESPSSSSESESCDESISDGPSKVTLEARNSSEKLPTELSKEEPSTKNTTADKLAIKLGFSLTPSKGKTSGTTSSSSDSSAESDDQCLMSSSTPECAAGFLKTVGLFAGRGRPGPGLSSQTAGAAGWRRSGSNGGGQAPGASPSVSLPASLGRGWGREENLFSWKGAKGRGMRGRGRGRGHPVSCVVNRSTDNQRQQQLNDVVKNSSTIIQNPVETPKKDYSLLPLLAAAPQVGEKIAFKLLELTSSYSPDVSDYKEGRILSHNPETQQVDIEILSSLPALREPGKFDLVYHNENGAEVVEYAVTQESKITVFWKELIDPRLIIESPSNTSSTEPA
UniProt P31949: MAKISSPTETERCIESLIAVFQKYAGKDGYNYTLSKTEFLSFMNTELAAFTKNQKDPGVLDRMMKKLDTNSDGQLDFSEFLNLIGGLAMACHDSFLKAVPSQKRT
UniProt P34932: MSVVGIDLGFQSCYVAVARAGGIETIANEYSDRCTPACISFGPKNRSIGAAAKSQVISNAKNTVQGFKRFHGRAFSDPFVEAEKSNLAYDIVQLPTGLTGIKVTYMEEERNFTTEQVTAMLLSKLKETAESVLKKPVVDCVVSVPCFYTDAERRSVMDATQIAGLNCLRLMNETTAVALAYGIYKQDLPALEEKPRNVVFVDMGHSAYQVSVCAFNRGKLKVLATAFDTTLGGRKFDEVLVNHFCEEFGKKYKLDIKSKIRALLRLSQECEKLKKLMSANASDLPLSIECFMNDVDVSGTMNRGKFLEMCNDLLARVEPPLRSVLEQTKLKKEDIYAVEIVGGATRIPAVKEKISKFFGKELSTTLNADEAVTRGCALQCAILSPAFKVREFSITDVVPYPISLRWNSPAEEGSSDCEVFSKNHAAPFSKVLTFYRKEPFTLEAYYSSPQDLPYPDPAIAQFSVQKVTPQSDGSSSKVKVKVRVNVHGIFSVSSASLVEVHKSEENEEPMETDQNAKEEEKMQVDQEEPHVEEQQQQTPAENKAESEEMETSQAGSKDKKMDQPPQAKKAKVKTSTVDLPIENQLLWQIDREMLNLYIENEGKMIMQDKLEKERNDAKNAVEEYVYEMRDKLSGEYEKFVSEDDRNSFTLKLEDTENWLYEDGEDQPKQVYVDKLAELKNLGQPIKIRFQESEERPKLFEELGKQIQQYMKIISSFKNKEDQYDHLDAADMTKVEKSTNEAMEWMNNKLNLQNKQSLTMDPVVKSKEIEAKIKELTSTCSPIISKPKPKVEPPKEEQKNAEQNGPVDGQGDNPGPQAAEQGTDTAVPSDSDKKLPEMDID
UniProt P30153, whole entry, looked up: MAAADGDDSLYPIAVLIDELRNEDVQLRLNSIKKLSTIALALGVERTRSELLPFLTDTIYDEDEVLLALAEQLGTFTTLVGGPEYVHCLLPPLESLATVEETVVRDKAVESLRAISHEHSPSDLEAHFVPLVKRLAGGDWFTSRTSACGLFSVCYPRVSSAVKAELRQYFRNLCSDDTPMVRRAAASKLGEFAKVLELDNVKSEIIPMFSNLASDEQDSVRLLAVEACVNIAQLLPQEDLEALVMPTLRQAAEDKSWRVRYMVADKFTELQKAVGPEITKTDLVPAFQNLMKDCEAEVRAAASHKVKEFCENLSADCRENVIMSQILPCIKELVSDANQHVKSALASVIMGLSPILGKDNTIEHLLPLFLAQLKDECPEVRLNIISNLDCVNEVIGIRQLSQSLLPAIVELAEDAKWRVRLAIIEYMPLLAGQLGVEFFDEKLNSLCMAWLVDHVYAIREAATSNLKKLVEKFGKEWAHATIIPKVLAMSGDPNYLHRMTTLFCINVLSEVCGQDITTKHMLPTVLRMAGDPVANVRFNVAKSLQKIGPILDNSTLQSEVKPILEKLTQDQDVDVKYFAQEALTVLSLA
UniProt P32321: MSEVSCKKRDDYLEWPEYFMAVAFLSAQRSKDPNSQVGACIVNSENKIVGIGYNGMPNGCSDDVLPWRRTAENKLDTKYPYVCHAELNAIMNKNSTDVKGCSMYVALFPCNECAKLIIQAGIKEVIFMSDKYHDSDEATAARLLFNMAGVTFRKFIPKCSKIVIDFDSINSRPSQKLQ

These targets were tested with COC(=O)/C=C/c1ccccc1 [methyl cinnamate] (assay: log2 ratio of iodoacetamide-alkyne labeling of the cysteine site, DMSO over compound (competition); higher = stronger covalent engagement of the cysteine by the compound, active = 1 or more). Conditions: 500 µM; treatment time 1 h; system: HEK293T cell lysate.
Method in brief: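 Electrophile (500 µM) or vehicle was added to HEK293T lysate (2 mg/mL) for 1 h at ambient temperature before iodoacetamide alkyne labelling (1 h) and click coupling to sCIP-TMT reagents. After pooling, overnight trypsin digestion at 37 °C, streptavidin enrichment and acid elution, peptides were measured by Orbitrap Eclipse LC-MS/MS with FAIMS and quantified in FragPipe. Each cysteine's log2 competition ratio compares mean control-channel with mean compound-channel reporter intensity, control over compound. Data came from duplicate channels across three replicates, excluding cysteines quantified in only one replicate.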

log2 ratio of iodoacetamide-alkyne labeling, inactive:
SHMT2 C80 (UniProt P34897) -0.138
MCM4 C162 (UniProt P33991) 0.112
SHMT1 C68 (UniProt P34896) 0.05
PSMC2 C236 (UniProt P35998) 0.0708
IARS C350 (UniProt P41252) 0.101
LRPPRC C330 (UniProt P42704) -0.0472
RFC2 C171 (UniProt P35250) 0.0206
ATIC C241 (UniProt P31939) 0.176
EIF2S3 C269 (UniProt P41091) 0.0351
EIF1 C94 (UniProt P41567) 0.0774
UniProt P42771_C72 0.318
UniProt P42356_C246 0.244
POLR2B C984 (UniProt P30876) -0.0202
CTNNA1 C461 (UniProt P35221) 0.364
POLR2B C919 (UniProt P30876) -0.242
COIL C170 (UniProt P38432) 0.296
S100A11 C91 (UniProt P31949) 0.212
MTOR C674 (UniProt P42345) 0.178
FEN1 C311 (UniProt P39748) 0.136
DNAJA1 C149 (UniProt P31689) 0.224
RFC4 C48 (UniProt P35249) 0.304
RRM2 C202 (UniProt P31350) 0.135
CUX1 C1040 (UniProt P39880) 0.624
UniProt P31260_C200 0.338
MCM4 C212 (UniProt P33991) 0.246
NCAPD3 C1316 (UniProt P42695) 0.339
IARS C120 (UniProt P41252) -0.00413
PPIF C104 (UniProt P30405) 0.24
EPS15 C657 (UniProt P42566) 0.19
HSPA4 C34 (UniProt P34932) 0.154
STIP1 C26 (UniProt P31948) 0.174
PPP2R1A C174 (UniProt P30153) 0.241
HSPA4 C380 (UniProt P34932) -0.0411
RFC2 C88 (UniProt P35250) 0.0927
AKT2 C124 (UniProt P31751) 0.332
HSPA4 C290 (UniProt P34932) 0.0552
DCTD C60 (UniProt P32321) 0.107
RPL13A C38 (UniProt P40429) 0.0615

As a working copy, part of the list above:
log2 ratio of iodoacetamide-alkyne labeling, inactive:
RFC4 C48 (UniProt P35249) 0.304
RRM2 C202 (UniProt P31350) 0.135
CUX1 C1040 (UniProt P39880) 0.624
